Test results: the supplement of paper PMC6078165
Values are relative to the signal before dosing, not to a vehicle control; the signal also falls without drug.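 Labels refer to human fibroblasts, largely primary: uterine (C12385, HUF), lung (H6013), bone (Hs27A), adrenal (HADF), skin (WS1), plus mammary HMF and breast cancer-associated Hs343T. Cancer lines are basal-like or mesenchymal-like triple-negative breast cancer. The paper counts as hits responses shifting over 3x the replicate standard deviation. The tissue of the other fibroblasts is not given here.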

System: MDAMB231
Test: relative JC-1 red fluorescence (viability) vs pre-drug, coculture with fibroblast (fraction); higher = more viable cancer cells
Experimental: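 JC-1 labelled TNBC cells cocultured 1:1 (1,500 cells each) with CellTrace Violet stained primary or stromal fibroblasts in 384-well plates in FluoroBrite medium, treated with one of 42 anticancer drugs at 0.1, 1, 10 or 100 uM. JC-1 red fluorescence (mitochondrial integrity in cancer cells only) was read by plate reader every 8 h for 72 h. Values are normalised to each well's pre-drug value. The stock of one drug was tenfold lower, so its dose labels may be too high.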

C[C@]12CC[C@@H]3c4ccc(O)cc4C[C@@H](CCCCCCCCC[S+]([O-])CCCC(F)(F)C(F)(F)F)[C@H]3[C@@H]1CC[C@@H]2O (stereo partly drawn) [Fulvestrant]
relative JC-1 red fluorescence
Conditions | 8 h | 16 h | 24 h | 32 h | 40 h | 48 h | 56 h | 64 h | 72 h
10 µM, coculture fibroblast: C12385 | 0.818 | 0.8423 | 0.699 | 0.7984 | 0.7666 | 0.75 | 0.726 | 0.725 | 0.711
10 µM, coculture fibroblast: H6013 | 0.931 | 0.91 | 0.89 | 0.888 | 0.8445 | 0.801 | 0.826 | 0.824 | 0.816
10 µM, coculture fibroblast: H6019 | 0.849 | 0.849 | 0.713 | 0.788 | 0.754 | 0.736 | 0.702 | 0.673 | 0.64
10 µM, coculture fibroblast: H6076 | 0.9594 | 0.9406 | 0.8976 | 0.8911 | 0.864 | 0.84 | 0.811 | 0.799 | 0.803
10 µM, coculture fibroblast: H6231 | 0.739 | 0.953 | 0.916 | 0.906 | 0.946 | 0.917 | 0.903 | 0.9 | 0.905
10 µM, coculture fibroblast: HADF | 0.9477 | 0.9367 | 0.923 | 0.931 | 0.912 | 0.835 | 0.861 | 0.857 | 0.821
10 µM, coculture fibroblast: HCFa | 0.9837 | 0.9896 | 0.9544 | 0.9544 | 0.925 | 0.879 | 0.893 | 0.873 | 0.856
10 µM, coculture fibroblast: HCPF | 0.9691 | 0.972 | 0.901 | 0.904 | 0.856 | 0.829 | 0.795 | 0.796 | 0.835
10 µM, coculture fibroblast: HHSteC | 0.96 | 0.855 | 0.926 | 0.918 | 0.88 | 0.867 | 0.841 | 0.832 | 0.82
10 µM, coculture fibroblast: HMF | 0.984 | 0.963 | 0.92 | 0.898 | 0.874 | 0.857 | 0.838 | 0.8203 | 0.8081
10 µM, coculture fibroblast: HPFa | 0.901 | 0.9672 | 0.913 | 0.8917 | 0.86694 | 0.822 | 0.773 | 0.7584 | 0.7385
10 µM, coculture fibroblast: HUF | 0.90818 | 0.8595 | 0.817 | 0.792 | 0.742 | 0.732 | 0.684 | 0.67397 | 0.672
10 µM, coculture fibroblast: Hs5 | 0.96 | 0.958 | 0.917 | 0.899 | 0.868 | 0.832 | 0.809 | 0.811 | 0.799
10 µM, coculture fibroblast: Hs27A | 0.9287 | 0.909 | 0.8873 | 0.884 | 0.856 | 0.751 | 0.816 | 0.81 | 0.777
10 µM, coculture fibroblast: Hs343T | 0.948 | 0.9476 | 0.8902 | 0.871 | 0.84 | 0.8131 | 0.7683 | 0.771 | 0.763
10 µM, coculture fibroblast: WS1 | 0.826 | 0.8514 | 0.714 | 0.8093 | 0.791 | 0.78 | 0.77 | 0.771 | 0.7616
100 µM, coculture fibroblast: C12385 | 0.871 | 0.913 | 0.778 | 0.906 | 0.881 | 0.881 | 0.881 | 0.8738 | 0.867
100 µM, coculture fibroblast: H6013 | 0.9849 | 0.97751 | 0.9592 | 0.97 | 0.938 | 0.904 | 0.925 | 0.918 | 0.892
100 µM, coculture fibroblast: H6019 | 0.877 | 0.88 | 0.793 | 0.838 | 0.83 | 0.824 | 0.804 | 0.795 | 0.774
100 µM, coculture fibroblast: H6076 | 0.779 | 0.857 | 0.826 | 0.751 | 0.893 | 0.784 | 0.84 | 0.928 | 0.9
100 µM, coculture fibroblast: H6231 | 0.834 | 0.782 | 0.743 | 0.853 | 0.84 | 0.9 | 0.911 | 0.889 | 0.797
100 µM, coculture fibroblast: HADF | 0.973 | 0.967 | 0.942 | 0.939 | 0.908 | 0.835 | 0.852 | 0.86 | 0.836
100 µM, coculture fibroblast: HCFa | 0.795 | 0.835 | 0.777 | 0.862 | 0.814 | 0.777 | 0.819 | 0.797 | 0.884
100 µM, coculture fibroblast: HCPF | 0.837 | 0.765 | 0.8 | 0.823 | 0.952 | 0.945 | 0.892 | 0.9344 | 0.88
100 µM, coculture fibroblast: HHSteC | 0.9698 | 0.973 | 0.944 | 0.946 | 0.942 | 0.839 | 0.882 | 0.877 | 0.887
100 µM, coculture fibroblast: HMF | 0.763 | 0.99638 | 0.976 | 0.963 | 0.9615 | 0.9474 | 0.943 | 0.947 | 0.972
100 µM, coculture fibroblast: HPFa | 0.844 | 0.722 | 0.909 | 0.906 | 0.924 | 0.943 | 0.97 | 0.959 | 0.931
100 µM, coculture fibroblast: HUF | 0.963 | 0.927 | 0.921 | 0.904 | 0.871 | 0.876 | 0.843 | 0.827 | 0.824
100 µM, coculture fibroblast: Hs5 | 0.878 | 0.978 | 0.957 | 0.935 | 0.913 | 0.897 | 0.887 | 0.866 | 0.855
100 µM, coculture fibroblast: Hs27A | 0.979 | 0.976 | 0.909 | 0.846 | 0.906 | 0.86 | 0.875 | 0.874 | 0.837
100 µM, coculture fibroblast: Hs343T | 0.845 | 0.847 | 0.848 | 0.845 | 0.851 | 0.87 | 0.862 | 0.916 | 0.898
100 µM, coculture fibroblast: WS1 | 0.862 | 0.913 | 0.736 | 0.842 | 0.837 | 0.815 | 0.805 | 0.785 | 0.789
